Values from PubChem BioAssay AID652243 (Drosophila RNAi Screening Center, 2013).

Screen: 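Fly regulators of androgen-dependent reporter output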 (primary screen)
Cell system: Drosophila S2R+ cells
Reagent: long dsRNA against Drosophila genes
Timing: 72 h (48 h, then 24 h hormone)
Treatment: synthetic androgen R1881 at 10 nM for 24 h
Detection: 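Firefly light from an androgen-responsive reporter and Renilla control light per well, raw and unnormalised, for each of two replicates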
Reading the numbers: firefly reporter light: higher = more light from androgen-responsive reporter; Renilla control light: higher = more constitutive control signal (cell number, transfection)
Active means: 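Across duplicate plates, a knock-down whose log firefly/Renilla ratio shifted a set fold down or up from the GFP/LacZ control mean was a hit; the downward cut appears as both 1.5 and 3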
Calls: active = hit: reporter lowered or raised; inactive = no hit
The screen tested about 24,000 reagents; this is an unselected part of those with a known target gene and a result. Of all reagents, 246 (1%) were called active. 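Plates not normalised; calls are printed but the firefly/Renilla ratio behind them is not deposited; fold cut for lowering reported inconsistently.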 Raw values vary from plate to plate and are shown uncorrected. A plus sign joins genes that one reagent is predicted to hit. Not stated in the record: the amount of reagent.

Target gene,DRSC id,"firefly reporter light, replicate 1","firefly reporter light, replicate 2","Renilla control light, replicate 1","Renilla control light, replicate 2",call
CG15125,DRSC06547,88741,96269,1.13e6,1.63e6,inactive
CG13933,DRSC08402,7.94e5,1.15e6,1.92e6,1.90e6,inactive
Nazo,DRSC14343,1.34e5,1.69e5,2.85e6,2.17e6,inactive
HDAC11,DRSC14280,1.14e5,1.72e5,2.15e6,2.44e6,inactive
HDAC11,DRSC26842,3.36e5,2.66e5,7.40e5,5.02e5,inactive
CG33124,DRSC00298,81488,39321,3.06e5,2.34e5,inactive
Hs2st,DRSC03348,1.17e6,1.09e6,1.71e6,1.52e6,inactive
Trap1,DRSC05019,1.05e6,4.53e5,8.42e5,7.40e5,inactive
Cdc7,DRSC18429,1.45e5,1.97e5,2.28e6,2.80e6,active
Cdc7,DRSC27819,2.14e5,1.69e5,4.70e5,5.83e5,inactive
CG42820,DRSC02265,1.98e5,2.38e5,1.64e6,1.61e6,inactive
CG42820,DRSC28699,4.41e5,4.64e5,1.55e6,1.51e6,inactive
ATPsynbeta,DRSC17194,2.89e5,2.71e5,3.31e6,2.91e6,inactive
CG13875,DRSC08345,1.12e5,99396,9.00e5,1.20e6,inactive
CG13594,DRSC23254,4.97e5,5.13e5,1.39e6,1.47e6,inactive
CG13594,DRSC27243,2.67e5,1.75e5,6.76e5,4.58e5,inactive
Vps11,DRSC11909,2.51e5,3.27e5,8.80e5,1.13e6,inactive
Vps11,DRSC21579,1.12e6,9.81e5,2.51e6,2.22e6,inactive
CG31404,DRSC15497,2.47e5,3.47e5,2.92e6,3.72e6,inactive
CG31404,DRSC28438,5.24e5,8.84e5,7.46e5,1.15e6,inactive
CG8617,DRSC07223,58379,60227,9.57e5,9.57e5,inactive
Acbp4,DRSC11023,1.85e5,2.31e5,1.82e6,2.74e6,inactive
Acbp4,DRSC28938,5.05e5,5.66e5,9.09e5,8.42e5,inactive
CG17258,DRSC00495,1.10e5,1.59e5,1.21e6,1.18e6,inactive
CG17258,DRSC22709,6.20e5,7.41e5,1.12e6,1.49e6,inactive
CG17258,DRSC28524,2.86e5,4.92e5,1.19e6,1.74e6,inactive
Cpr67Fb,DRSC10314,1.61e5,1.62e5,1.52e6,1.50e6,inactive
Cpr67Fb,DRSC29696,5.07e5,2.97e5,1.50e6,1.20e6,inactive
alpha-Man-IIb,DRSC16898,91980,88650,6.69e5,5.77e5,inactive
alpha-Man-IIb,DRSC24186,1.05e6,1.13e6,1.09e6,9.04e5,inactive
alpha-Man-IIb,DRSC38984,1.01e6,7.50e5,2.10e6,1.75e6,inactive
pita,DRSC04006,1.63e5,2.09e5,2.94e5,4.12e5,inactive
pita,DRSC04435,4.81e5,5.26e5,1.33e6,1.44e6,inactive
CG15865,DRSC19733,8.16e5,4.40e5,3.87e6,3.21e6,inactive
spz6,DRSC04533,7.09e5,7.73e5,1.26e6,1.52e6,inactive
Ku80,DRSC02699,1.21e5,1.49e5,1.37e6,1.27e6,inactive
Ku80,DRSC26861,4.29e5,3.54e5,6.75e5,5.90e5,inactive
smid,DRSC11398,2.50e5,2.28e5,3.23e6,3.42e6,inactive
smid,DRSC28019,1.12e6,1.01e6,1.83e6,1.61e6,inactive

Next part; the last 6 above are carried over.
Target gene,DRSC id,"firefly reporter light, replicate 1","firefly reporter light, replicate 2","Renilla control light, replicate 1","Renilla control light, replicate 2",call
CG15865,DRSC19733,8.16e5,4.40e5,3.87e6,3.21e6,inactive
spz6,DRSC04533,7.09e5,7.73e5,1.26e6,1.52e6,inactive
Ku80,DRSC02699,1.21e5,1.49e5,1.37e6,1.27e6,inactive
Ku80,DRSC26861,4.29e5,3.54e5,6.75e5,5.90e5,inactive
smid,DRSC11398,2.50e5,2.28e5,3.23e6,3.42e6,inactive
smid,DRSC28019,1.12e6,1.01e6,1.83e6,1.61e6,inactive
GCS2alpha,DRSC21036,1.96e5,1.83e5,4.66e5,5.44e5,inactive
aly,DRSC08707,2.03e5,2.18e5,2.42e6,2.94e6,inactive
aly,DRSC21784,3.85e5,4.63e5,1.60e6,2.57e6,inactive
aly,DRSC39161,4.15e5,4.98e5,1.79e6,1.41e6,inactive
IP3K2,DRSC19500,3.65e5,4.00e5,2.70e6,3.23e6,inactive
IP3K2,DRSC19747,7.62e5,8.32e5,3.62e6,4.09e6,inactive
IP3K2,DRSC22614,5.60e5,5.31e5,1.41e6,1.81e6,inactive
IP3K2,DRSC24796,8.51e5,7.64e5,7.98e5,8.70e5,inactive
IP3K2,DRSC27191,5.25e5,4.08e5,6.13e5,5.36e5,inactive
IP3K2,DRSC37048,,,,,inactive
lmgA + lmgB,DRSC03566,1.57e5,1.65e5,1.29e6,1.41e6,inactive
lmgA + lmgB,DRSC24454,4.33e5,4.62e5,5.72e5,5.94e5,inactive
CG9083 + Tpc2,DRSC04625,7.45e5,8.44e5,7.87e5,8.52e5,inactive
CG9083 + Tpc2,DRSC25523,6.71e5,7.83e5,9.22e5,1.09e6,inactive
AspRS-m,DRSC02646,88179,1.08e5,1.37e6,1.59e6,inactive
lbk,DRSC07178,6.98e5,8.34e5,7.16e5,8.45e5,inactive
CG7275,DRSC10796,1.04e6,9.54e5,1.77e6,1.97e6,inactive
CG32755,DRSC18397,3.39e5,5.05e5,3.19e6,3.21e6,inactive
CG32755,DRSC27494,2.50e5,2.33e5,4.62e5,7.56e5,inactive
CoRest,DRSC19881,1.65e5,1.51e5,6.81e5,9.20e5,inactive
CoRest,DRSC21626,1.31e6,9.60e5,2.26e6,1.56e6,inactive
CoRest,DRSC22305,9.03e5,7.99e5,2.24e6,1.94e6,inactive
CoRest,DRSC25141,1.22e6,1.20e6,1.02e6,6.60e5,inactive
CG12204,DRSC19442,90262,1.23e5,6.23e5,6.37e5,inactive
CG12204,DRSC26143,3.34e5,3.39e5,7.83e5,7.50e5,inactive
FRG1,DRSC10648,2.19e5,1.41e5,3.05e6,1.54e6,inactive
CG15458,DRSC20529,3.01e5,1.26e5,9.40e5,4.14e5,inactive
CG9263,DRSC03176,4.17e5,3.22e5,2.30e6,2.06e6,inactive
GstD1,DRSC16683,61624,73998,1.78e6,1.74e6,inactive
GstD1,DRSC27603,2.07e5,2.50e5,4.72e5,6.81e5,inactive
CG17568,DRSC02628,3.23e5,3.58e5,2.64e6,3.06e6,inactive
Naa80,DRSC16429,90351,87528,1.09e6,1.26e6,inactive
Naa80,DRSC28038,6.61e5,6.16e5,1.73e6,1.74e6,inactive
bib,DRSC03496,7.25e5,7.51e5,2.42e6,1.94e6,inactive
CG3698,DRSC11749,73581,63375,4.33e5,3.65e5,inactive
CG3698,DRSC26417,2.43e5,3.21e5,3.71e5,6.94e5,inactive
